Paper PMC11297322, “MEILB2-BRME1 forms a V-shaped DNA clamp upon BRCA2-binding in meiotic recombination” (Nature Communications, 2023)
Results are given in words; binding and its absence hold for the method and conditions named. Binding seen in cells or lysates may run through a third protein. Some entries that bind do so weakly or less than the wild type. Sequences can lack the tags named with a protein.

Biological target: T1, MBP–MEILB2α (mouse MEILB2 22–81 with N-terminal MBP) (mouse) (UniProt Q9D4G2)
T1 sequence: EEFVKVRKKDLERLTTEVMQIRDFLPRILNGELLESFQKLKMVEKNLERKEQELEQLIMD
Experiment: pull-down; amylose pulldown of His-BRME1MBD with MBP–MEILB2α following recombinant co-expression; amylose elution fractions on SDS–PAGE

B1: BRME1MBD (mouse BRME1 amino-acids 540–578) (domain or fragment, UniProt Q6DIA7 540-578, looked up)
chain: RMQDATDTVRGLVVELSGLNRLIMSTHRDLEAFKRRKTK
notes: source: E. coli BL21 (DE3), purified in complex with MEILB2 (Ni-NTA, amylose, ion exchange, TEV cleavage, SEC); not shown: His6, N-terminal, cleaved
binding: binds
